From US20100145008A1
These are yes or no findings as the source states them, for the method shown. Some binding calls cover weakened binding; strength is not graded here. Where a sequence is shown, tags or fusion partners need not be part of it.

Target: T1, GarA (Mycobacterium tuberculosis) (UniProt P9WJA9)
T1 sequence (looked up): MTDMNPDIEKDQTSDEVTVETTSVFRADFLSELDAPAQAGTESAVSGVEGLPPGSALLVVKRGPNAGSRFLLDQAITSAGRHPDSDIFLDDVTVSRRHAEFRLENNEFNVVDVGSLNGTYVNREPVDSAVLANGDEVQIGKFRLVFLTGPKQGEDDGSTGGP
Assay: ELISA screening

B1: GarA-binder of SEQ ID No: 47 (designed binder)
chain: GSVKVKFLYLGEEKEVDTSKIWFVMRAGKHVYFQYDDNGKYGIGWVREKDAPKELLDMLARAEREKKL
With B1 the binding was “binds”.
